Measurements taken from PMC5663720.
Results are given in words; binding and its absence hold for the method and conditions named. Binding seen in cells or lysates may run through a third protein. A result given as binding can be weak or reduced; the word gives no strength. Where a sequence is shown, tags or fusion partners need not be part of it.

Chains of the proteins cited; added tags and fusions are not shown. Lines headed by an entry give the natural chain unless they say otherwise; changes in a name come on top.
UniProt Q9XEC6: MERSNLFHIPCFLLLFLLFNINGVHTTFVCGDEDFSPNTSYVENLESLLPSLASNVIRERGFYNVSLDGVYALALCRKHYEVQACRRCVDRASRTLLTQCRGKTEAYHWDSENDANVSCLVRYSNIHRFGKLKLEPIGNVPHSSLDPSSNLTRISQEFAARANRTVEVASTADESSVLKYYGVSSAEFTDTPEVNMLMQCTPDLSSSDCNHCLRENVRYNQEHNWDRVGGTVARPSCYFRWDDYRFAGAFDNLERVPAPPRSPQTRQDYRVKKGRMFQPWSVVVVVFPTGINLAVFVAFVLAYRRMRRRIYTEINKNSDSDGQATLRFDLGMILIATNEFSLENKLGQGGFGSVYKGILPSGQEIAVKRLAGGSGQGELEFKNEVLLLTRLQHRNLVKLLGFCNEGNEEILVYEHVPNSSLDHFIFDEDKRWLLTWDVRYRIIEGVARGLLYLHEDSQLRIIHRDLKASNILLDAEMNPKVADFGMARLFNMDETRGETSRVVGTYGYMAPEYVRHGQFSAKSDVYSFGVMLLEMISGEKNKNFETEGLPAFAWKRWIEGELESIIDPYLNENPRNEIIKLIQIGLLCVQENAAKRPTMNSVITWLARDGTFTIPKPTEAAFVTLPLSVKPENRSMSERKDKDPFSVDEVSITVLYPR

Target: T1, BIK1-YFP^N (N. benthamiana) (Arabidopsis thaliana) (UniProt O48814)
T1 sequence: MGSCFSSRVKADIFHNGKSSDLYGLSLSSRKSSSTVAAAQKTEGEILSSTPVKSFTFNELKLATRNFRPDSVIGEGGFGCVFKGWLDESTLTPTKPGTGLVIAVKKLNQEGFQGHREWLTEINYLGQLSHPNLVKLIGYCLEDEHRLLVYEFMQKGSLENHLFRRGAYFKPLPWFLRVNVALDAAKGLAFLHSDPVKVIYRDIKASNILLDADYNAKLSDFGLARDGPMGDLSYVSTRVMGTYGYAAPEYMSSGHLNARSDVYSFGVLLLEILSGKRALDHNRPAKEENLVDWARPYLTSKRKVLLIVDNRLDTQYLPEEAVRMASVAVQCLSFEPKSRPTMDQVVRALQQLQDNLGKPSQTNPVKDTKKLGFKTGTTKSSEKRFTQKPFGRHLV
Assay: split reporter; BiFC (split YFP) in N. benthamiana leaves co-infiltrated with Agrobacterium C58C1; confocal microscopy

binding: binds
Substance: CRK36^C6789A-YFP^C (from UniProt Q9XEC6) (receptor)
